In PMC4740771, “Nucleotide-dependent assembly of the peroxisomal receptor export complex” (Scientific Reports, 2016):
Results are given in words; binding and its absence hold for the method and conditions named. For some assays here: In cells and extracts the contact can be indirect. Some entries that bind do so weakly or less than the wild type. For some assays here: Where a sequence is shown, tags or fusion partners need not be part of it.

T1: Pex15pTPA (S. cerevisiae) (UniProt Q08215)
T1 sequence: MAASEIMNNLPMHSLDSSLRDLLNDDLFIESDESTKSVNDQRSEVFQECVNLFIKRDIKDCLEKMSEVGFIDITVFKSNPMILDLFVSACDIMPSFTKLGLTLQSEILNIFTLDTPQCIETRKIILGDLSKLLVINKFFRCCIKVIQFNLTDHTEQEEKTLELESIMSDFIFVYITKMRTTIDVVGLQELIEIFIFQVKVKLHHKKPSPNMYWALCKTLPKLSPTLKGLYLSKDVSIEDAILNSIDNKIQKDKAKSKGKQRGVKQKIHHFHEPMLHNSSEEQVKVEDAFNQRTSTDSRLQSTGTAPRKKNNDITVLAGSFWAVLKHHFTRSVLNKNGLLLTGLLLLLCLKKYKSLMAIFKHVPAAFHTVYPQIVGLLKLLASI

T2: GST-Pex15p(1-315)His (S. cerevisiae) (UniProt Q08215)
T2 sequence: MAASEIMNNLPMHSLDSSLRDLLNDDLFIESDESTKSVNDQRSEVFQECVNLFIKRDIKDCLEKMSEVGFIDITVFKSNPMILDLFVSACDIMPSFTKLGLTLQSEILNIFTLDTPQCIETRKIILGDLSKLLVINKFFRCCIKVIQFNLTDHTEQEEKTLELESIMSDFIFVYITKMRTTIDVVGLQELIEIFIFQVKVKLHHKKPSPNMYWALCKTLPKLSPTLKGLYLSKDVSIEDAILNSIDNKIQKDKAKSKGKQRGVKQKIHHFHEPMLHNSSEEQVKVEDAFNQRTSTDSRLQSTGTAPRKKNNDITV

B1: Pex6p (endogenous, yeast membranes) (protein, UniProt P33760 1-1030)
chain: MKASLTFSLSGIYAPCSISRDIYLEYGDKKAECLYGTIRLPQYGPGCTPGKIVHCVLDDSLPFCSIVVPSKLFGFMPTQPTMDFCYFEPILDNVVPVLDSVTFLINEQLYSKLMDLPQEMQQIQFLHYKYNINSMETVVHSRDILTSGLCQILNCSPFPQGLVDFTETQLILVNDTEQKLSALKYANEDEEYALPKIGTNSALSIDLESLPCTISRDLLRPAPHINDDNSIYAFTDAETLLRLDVTSGSFITVSNMGCVRLVKLFVLLLPNGFKKRTIYAPPKIIASFPDCSVVTISKSNIGHTDIPIANQVFISRVGGWLQSQKCFQNIILTTLKKFFSESKRILCQNDLIPIAFDSSMADLNIAEENDESDDEDELGQYYKNDSLVWFFVTSAELDCFSKDNSHFIIDPNRTKLITTNITNRRPLPLSRSNLQRYYGFAETFYYDLHIFPYVRQLVNILETSFNCSQRGITLNASVLLHSTTNNVGKATMVRFASKYLGIHLLEIDCLSLTSNSRQLDSTSKIIGYIRAKCENVLPYASPAVIFLAHLDSILLDVNANQDPEAIKLQKSINFEMSKLLDDFTFKFPGTTFVGSVNNIDNVPSSFRSHMRFEILVPVPSEAQRLRIFQWYLSSHELNRDVQQKVPVSYMDNISFSSLSSYSAGLTPLDIKSIVETARMTATARFYQESKKCGWLPQSILITQEDLSKATSKARNEFSVSIGAPQIPNVTWDDIGGIDFVKGEILDTIDMPLKHPELFTSGMKKRSGILFYGPPGTGKTLMAKAIATNFSLNFFSVKGPELLNMYIGESEANVRRVFQKAREAKPCVIFFDEIDSVAPKRGNQGDSGGVMDRIVSQLLAELDGMSTDADGVFVIGATNRPDLLDEALLRPGRFDKLLYLGIPDTDTKQLNILEALTRKFVLDNDVKLIELAKLCPFNYTGADFYALCSDAMLNAMSRIARMVEKKVSQHNELTGENISTRRWFDKIATKEDTKVVVKMEDFLKAQEQLTPSVSRAELNHYEAVRANFEGA
B2: HisPex1p (protein, UniProt P24004 1-1043)
chain: MTTTKRLKFENLRIQFSNAIVGNFLRLPHSIINVLESTNYAIQEFGIAVHSHNSDIPIVHLGWDGHDSGSSENVVLINPVLATVYDLNQKSPLVDLYIQRYDHTHLATEVYVTPETSDDWEIIDANAMRFQNGEILHQTRIVTPGETLICYLEGIVTKFKIDRVEPSMKSARITDGSLVVVAPKVNKTRLVKAEYGHSNKTILKNGAIQLLKKVILRSTVCKMDFPKDNLFVVYISDGAQLPSQKGYASIVKCSLRQSKKSDSDNKSVGIPSKKIGVFIKCDSQIPENHIALSSHLWDAFFTHPMNGAKIKLEFLQMNQANIISGRNATVNIKYFGKDVPTKSGDQYSKLLGGSLLTNNLILPTEQIIIEIKKGESEQQLCNLNEISNESVQWKVTQMGKEEVKDIIERHLPKHYHVKETGEVSRTSKDEDDFITVNSIKKEMVNYLTSPIIATPAIILDGKQGIGKTRLLKELINEVEKDHHIFVKYADCETLHETSNLDKTQKLIMEWCSFCYWYGPSLIVLDNVEALFGKPQANDGDPSNNGQWDNASKLLNFFINQVTKIFNKDNKRIRVLFSGKQKTQINPLLFDKHFVSETWSLRAPDKHARAKLLEYFFSKNQIMKLNRDLQFSDLSLETEGFSPLDLEIFTEKIFYDLQLERDCDNVVTRELFSKSLSAFTPSALRGVKLTKETNIKWGDIGALANAKDVLLETLEWPTKYEPIFVNCPLRLRSGILLYGYPGCGKTLLASAVAQQCGLNFISVKGPEILNKFIGASEQNIRELFERAQSVKPCILFFDEFDSIAPKRGHDSTGVTDRVVNQLLTQMDGAEGLDGVYILAATSRPDLIDSALLRPGRLDKSVICNIPTESERLDILQAIVNSKDKDTGQKKFALEKNADLKLIAEKTAGFSGADLQGLCYNAYLKSVHRWLSAADQSEVVPGNDNIEYFSINEHGRREENRLRLKTLLQQDVVHETKTSTSAASELTAVVTINDLLEACQETKPSISTSELVKLRGIYDRFQKDRNGEMPNGENSIDIGSRLSLM

Experiments:
[1] = target: T1, Pex15pTPA (S. cerevisiae); assay: co-IP; Pex15pTPA isolated from 1% digitonin-solubilised total membranes on IgG-Sepharose, TEV protease eluate, immunoblot; 5 mM ATP
[2] = target: T2, GST-Pex15p(1-315)His (S. cerevisiae); assay: pull-down; GST-Pex15p(1-315)His incubated with purified proteins, loaded on GSH-agarose, eluted with glutathione; 5 mM ATP; Coomassie and immunoblot, signal intensities of load and eluate; both purified

Row | Binder | binding [1] | binding [2]
1 | B1 | binds | 
2 | B2 |  | no binding
